This is an account of results in the supplement of paper PMC8728848.

Some of the results follow.

What all share (assay): glycan array binding signal (z-score within array); higher = stronger binding
Common to all, as to conditions: glycan notation: IUPAC condensed, linker removed

The target of test [1] is GlcNAc(b1-3)Gal(b1-4)GlcNAc(b1-3)GalNAc. The method, boiled down:
(§1)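 Glycan array data were curated from 3228 arrays in the Consortium for Functional Glycomics database and kept only where the protein sequence was available. Glycan names were converted to IUPAC-condensed notation, and columns mapping to the same glycan were averaged. The binding signal is a within-array Z-score, averaged across arrays of the same protein sequence at different concentrations or buffers and across linkers. Negative Z-scores can be read as non-binding.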

For test [2], the target named is GlcNAc(b1-3)Gal(b1-4)GlcNAc(b1-3)[GlcNAc(b1-3)Gal(b1-4)GlcNAc(b1-3)]GalNAc. The method, boiled down: as §1
In test [3] the target is GlcNAc(b1-3)Gal(b1-4)GlcNAc(b1-6)[Gal(b1-3)]GalNAc. The method, boiled down:
as §1

The target in test [4] is GlcNAc(b1-3)Gal(b1-4)GlcNAc(b1-6)[GlcNAc(b1-3)Gal(b1-3)]GalNAc. The method, boiled down: as §1
The target in test [5] is GlcNAc(b1-3)Gal(b1-4)GlcNAc(b1-6)[GlcNAc(b1-3)]Gal(b1-4)GlcNAc. The method, boiled down: as §1
The next test deals with GlcNAc(b1-3)GalNAc. The method, boiled down: as §1
In the next test the target is GlcNAc(b1-3)Man. The method, boiled down: as §1
Test [6] addresses GlcNAc(b1-3)[GlcNAc(b1-4)][GlcNAc(b1-6)]GlcNAc. The method, boiled down: as §1
For test [7], the target named is GlcNAc(b1-3)[GlcNAc(b1-6)]Gal(b1-4)GlcNAc. The method, boiled down:
as §1

Test [8] concerns the target GlcNAc(b1-3)[GlcNAc(b1-6)]GalNAc. The method, boiled down: as §1
For test [9], the target named is GlcNAc(b1-4)Gal(b1-4)GlcNAc. The method, boiled down: as §1
The next test addresses GlcNAc(b1-4)GlcNAc. The method, boiled down:
as §1

In test [10] the target is GlcNAc(b1-4)GlcNAc(b1-4)GlcNAc. The method, boiled down: as §1
Test [11] addresses GlcNAc(b1-4)GlcNAc(b1-4)GlcNAc(b1-4)GlcNAc(b1-4)GlcNAc. The method, boiled down: as §1
Test [12] addresses GlcNAc(b1-4)GlcNAc(b1-4)GlcNAc(b1-4)GlcNAc(b1-4)GlcNAc(b1-4)GlcNAc. The method, boiled down:
as §1

Test [13] has as its target GlcNAc(b1-4)[GlcNAc(b1-6)]GalNAc. The method, boiled down:
as §1

The target of test [14] is GlcNAc(b1-6)Gal(b1-4)GlcNAc. The method, boiled down: as §1
The target of the next test is GlcNAc(b1-6)GalNAc. The method, boiled down:
as §1

In another test the target is GlcNAc3Prop(b1-4)GlcNAc. The method, boiled down:
as §1

Test [15] concerns the target GlcNAc6S(b1-3)Gal(b1-4)GlcNAc. The method, boiled down: as §1
The target in the next test is Kdn(a2-3)Gal(b1-3)GalNAc. The method, boiled down:
as §1

The target of another test is Kdn(a2-3)Gal(b1-3)GlcNAc. The method, boiled down:
as §1

Another test deals with Kdn(a2-3)Gal(b1-4)Glc. The method, boiled down:
as §1

B1: LlpA1 (Pseudomonas fluorescens), Q4KHC3 (protein)
chain: MGSSHHHHHHSSGLVPRGSHMAWIRYDFTDNGSSVLPARYYMAPNQYLQSPNKRFKLLFQADGNLALYDGAQLAWVADQNTPFTNVSKGNKKDPMMVFMNYGFVLDDPLRGRIWSTTPSDPTMGSREDASLRAFTQVQDDGNIVTVDTIPHWYAPNGRVFTPAVGAAMIIGGTTELVPGQFYSAGEHSLVFQGDGNLVVYGPNSSVIWATYTQNKGGVRCVMQEDGNLVIYAANNGVVWQSGTGGHPGATIRLQANGSFTIVTERPVWARFGYTPTIKPPRVFYPDHKWKTGSYTWNNVF
Take B1: the “glycan array binding signal (z-score)” value in [1] was -0.404; in [2], -0.26; in [3], 1.44; in [4], 1.87; in test [5], -0.55; in the test with GlcNAc(b1-3)GalNAc, 0.039. Further, the “glycan array binding signal (z-score)” value is 1.3 in the test with GlcNAc(b1-3)Man; 0.416 in [6]; 0.307 in test [7]; -0.057 in test [8]; -0.371 in test [9]; 0.141 with GlcNAc(b1-4)GlcNAc. The “glycan array binding signal (z-score)” value was -0.285 in [10]; 0.347 in test [11]; 0 in test [12]; 0.367 in test [13]; -0.025 in test [14]; -0.33 with GlcNAc(b1-6)GalNAc. Also, the “glycan array binding signal (z-score)” value with GlcNAc3Prop(b1-4)GlcNAc is 0.426; in test [15] it was -0.108; in the test with Kdn(a2-3)Gal(b1-3)GalNAc, -0.108; with Kdn(a2-3)Gal(b1-3)GlcNAc, -0.948; with Kdn(a2-3)Gal(b1-4)Glc, -0.444.
